In PMC1976419 one finds binding data, which are given here for two substances.

Holding throughout (test): co-IP; 25 mg crude lysate of yeast strains with a C-terminally TAP-tagged SAGA component and Flag-Spt7, purified on IgG agarose; bound protein separated by 5% SDS-PAGE, Flag-Spt7 forms detected with anti-Flag antibody
Assay [1] deals with T1, C-terminally TAP-tagged Taf5 (S. cerevisiae) (UniProt P38129).
T1 sequence: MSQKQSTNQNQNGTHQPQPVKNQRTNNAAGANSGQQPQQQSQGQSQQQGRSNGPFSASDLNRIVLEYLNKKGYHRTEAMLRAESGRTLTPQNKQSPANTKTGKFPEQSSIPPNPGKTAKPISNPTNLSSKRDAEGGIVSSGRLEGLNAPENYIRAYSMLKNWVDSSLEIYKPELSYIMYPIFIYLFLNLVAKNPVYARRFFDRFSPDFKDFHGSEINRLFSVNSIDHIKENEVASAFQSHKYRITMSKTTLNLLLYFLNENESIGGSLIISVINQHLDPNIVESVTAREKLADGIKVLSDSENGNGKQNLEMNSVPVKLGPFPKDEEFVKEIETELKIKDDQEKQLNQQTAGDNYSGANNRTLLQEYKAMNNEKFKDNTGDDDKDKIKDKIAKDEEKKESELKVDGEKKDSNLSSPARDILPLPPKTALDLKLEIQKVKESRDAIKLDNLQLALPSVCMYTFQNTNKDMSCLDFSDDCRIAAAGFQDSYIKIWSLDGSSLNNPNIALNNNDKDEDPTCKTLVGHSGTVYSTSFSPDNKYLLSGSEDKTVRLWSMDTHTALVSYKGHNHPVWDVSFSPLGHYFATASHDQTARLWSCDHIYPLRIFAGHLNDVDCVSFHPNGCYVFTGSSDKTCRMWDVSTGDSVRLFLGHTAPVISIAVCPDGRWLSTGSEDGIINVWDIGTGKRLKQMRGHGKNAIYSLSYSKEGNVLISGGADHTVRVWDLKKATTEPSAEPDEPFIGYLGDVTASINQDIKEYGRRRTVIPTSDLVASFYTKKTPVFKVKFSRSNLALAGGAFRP

Assay [2] has as its target T2, C-terminally TAP-tagged Spt8 (S. cerevisiae) (UniProt P38915).
T2 sequence: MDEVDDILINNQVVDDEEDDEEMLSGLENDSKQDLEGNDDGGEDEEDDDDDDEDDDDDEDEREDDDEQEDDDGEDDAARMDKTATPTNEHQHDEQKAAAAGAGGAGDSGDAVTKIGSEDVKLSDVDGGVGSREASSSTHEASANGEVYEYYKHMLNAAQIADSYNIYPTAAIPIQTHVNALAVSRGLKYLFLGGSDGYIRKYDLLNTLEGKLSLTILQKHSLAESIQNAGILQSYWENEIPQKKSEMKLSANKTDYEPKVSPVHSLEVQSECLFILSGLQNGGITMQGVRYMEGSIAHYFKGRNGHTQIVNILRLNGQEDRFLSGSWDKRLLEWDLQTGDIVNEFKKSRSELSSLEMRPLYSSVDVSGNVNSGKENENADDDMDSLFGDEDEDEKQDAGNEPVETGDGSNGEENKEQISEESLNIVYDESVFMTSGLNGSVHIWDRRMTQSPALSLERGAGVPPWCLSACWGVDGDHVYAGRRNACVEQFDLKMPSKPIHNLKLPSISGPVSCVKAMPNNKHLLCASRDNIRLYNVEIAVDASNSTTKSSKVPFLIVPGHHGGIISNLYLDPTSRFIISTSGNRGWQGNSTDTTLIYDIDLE

Assay [3] addresses T3, C-terminally TAP-tagged Spt3 (S. cerevisiae) (UniProt P06844).
T3 sequence: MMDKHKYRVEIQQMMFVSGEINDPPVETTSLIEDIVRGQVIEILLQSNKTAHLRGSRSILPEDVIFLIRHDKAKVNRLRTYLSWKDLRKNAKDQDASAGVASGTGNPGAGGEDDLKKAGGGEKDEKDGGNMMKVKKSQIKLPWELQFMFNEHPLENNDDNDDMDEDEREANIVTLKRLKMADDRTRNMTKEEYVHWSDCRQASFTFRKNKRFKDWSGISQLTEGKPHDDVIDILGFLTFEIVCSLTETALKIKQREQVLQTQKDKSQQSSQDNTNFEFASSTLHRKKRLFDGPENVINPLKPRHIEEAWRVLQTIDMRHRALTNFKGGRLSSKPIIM

The target of assay [4] is T4, C-terminally TAP-tagged Ubp8 (S. cerevisiae) (UniProt P50102).
T4 sequence: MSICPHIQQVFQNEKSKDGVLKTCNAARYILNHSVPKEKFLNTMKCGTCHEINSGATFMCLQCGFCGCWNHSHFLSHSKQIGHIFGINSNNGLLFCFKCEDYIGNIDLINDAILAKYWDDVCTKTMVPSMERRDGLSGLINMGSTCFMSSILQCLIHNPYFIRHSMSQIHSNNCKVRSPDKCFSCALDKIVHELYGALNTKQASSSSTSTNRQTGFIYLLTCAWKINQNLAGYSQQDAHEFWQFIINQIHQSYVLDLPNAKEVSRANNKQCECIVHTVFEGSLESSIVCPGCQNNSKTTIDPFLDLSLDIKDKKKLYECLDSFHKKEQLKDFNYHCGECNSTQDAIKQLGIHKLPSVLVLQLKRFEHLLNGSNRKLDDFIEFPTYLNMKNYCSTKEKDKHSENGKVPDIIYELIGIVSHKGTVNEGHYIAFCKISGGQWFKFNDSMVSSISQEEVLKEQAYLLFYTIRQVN

Assay [5] deals with T5, C-terminally TAP-tagged Ada2 (S. cerevisiae) (UniProt Q02336).
T5 sequence: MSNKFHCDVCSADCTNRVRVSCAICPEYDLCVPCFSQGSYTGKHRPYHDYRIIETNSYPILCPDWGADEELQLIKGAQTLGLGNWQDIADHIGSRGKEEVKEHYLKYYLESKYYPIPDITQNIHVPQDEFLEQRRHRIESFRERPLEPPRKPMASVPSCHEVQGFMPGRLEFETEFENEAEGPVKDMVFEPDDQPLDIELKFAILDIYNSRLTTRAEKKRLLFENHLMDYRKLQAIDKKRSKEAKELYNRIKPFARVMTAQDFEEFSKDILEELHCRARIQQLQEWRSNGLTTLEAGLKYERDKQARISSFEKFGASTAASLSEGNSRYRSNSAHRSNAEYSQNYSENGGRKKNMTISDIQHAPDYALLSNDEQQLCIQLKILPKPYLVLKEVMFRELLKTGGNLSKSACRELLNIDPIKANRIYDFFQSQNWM

Results are given in words; binding and its absence hold for the method and conditions named. Binding seen in cells or lysates may run through a third protein. For part of these data: A result given as binding can be weak or reduced; the word gives no strength. Tags and fused reporters may be left off the sequences shown.

Regarding “Flag-Spt7, C-terminally truncated SLIK form (Spt7SLIK) (S. cerevisiae) (domain or fragment)”, the binding result in assay [1] is “binds”; in assay [2], “no binding”; in assay [3] it was “binds”; in assay [4] it was “binds”; in assay [5], “binds”.
For “Flag-Spt7, third C-terminally processed form (Spt7Form3) (S. cerevisiae) (domain or fragment)”, the binding entry in assay [2] is “no binding”.
